PubChem BioAssay AID1224828 | NIAID, 2016

Screen: 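Find genes required for NF-kappaB p65 moving into the nucleus after LPS in mouse macrophages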 (primary screen)
Cell system: mouse RAW264.7 G9 macrophage reporter cells (GFP-p65, Tnf promoter-mCherry)
Knock-down reagent: siRNA pool against mouse genes, 100 nM
Time to read-out: 2 days siRNA transfection, then 40 min LPS before fixation
Treatment: LPS (Salmonella minnesota R595) at 10 ng/ml
Read-out: 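Microscopy ratio of nuclear to perinuclear-ring GFP-p65 signal, scaled to the plate median; gene score is the average of two replicate robust z-scores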
Reading the numbers: p65 translocation robust z-score: higher = more nuclear NF-kappaB p65 after LPS than the plate median; nuclear/cytoplasmic p65 ratio: higher = more nuclear NF-kappaB p65
Hit rule: 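Called active when z exceeds 3.3 or falls under -1.56 (median of Tlr4 controls), giving activity score of at least 50; no calls for control wells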
Calls: active = hit (p65 shift raised or lowered); inactive = no clear change
This is a random part of about 17,000 reagents. 762 of all reagents (4.5%) were called active. 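Active calls include both raised and lowered p65 entry, mostly lowered; wells with fewer than 50 cells lack a z-score.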 Raw values vary from plate to plate and are shown uncorrected.

After knock-down of Abcg4, the screen gave p65 translocation robust z-score -0.5; nuclear/cytoplasmic p65 ratio, rep 1 = 1.54; nuclear/cytoplasmic p65 ratio, rep 2 = 1.59; low cell count flag enough cells to score; inactive.
Silencing of Fam98c came out at: nuclear/cytoplasmic p65 ratio, rep 1 = 1.41; nuclear/cytoplasmic p65 ratio, rep 2 = 1.38; low cell count flag fewer than 50 cells per well; well left out of scoring; inactive.
After knock-down of Sdha, the record shows p65 translocation robust z-score -0.32; nuclear/cytoplasmic p65 ratio, rep 1 = 1.44; nuclear/cytoplasmic p65 ratio, rep 2 = 1.57; low cell count flag enough cells to score; inactive.
Knock-down of Tfap2d came out at: p65 translocation robust z-score 0.89; nuclear/cytoplasmic p65 ratio, rep 1 = 1.63; nuclear/cytoplasmic p65 ratio, rep 2 = 1.66; low cell count flag enough cells to score; inactive.
For Adipoq, the entry reads p65 translocation robust z-score 1.63; nuclear/cytoplasmic p65 ratio, rep 1 = 1.84; nuclear/cytoplasmic p65 ratio, rep 2 = 1.95; low cell count flag enough cells to score; inactive.
With knock-down of Gjc3, the screen gave p65 translocation robust z-score -0.42; nuclear/cytoplasmic p65 ratio, rep 1 = 1.54; nuclear/cytoplasmic p65 ratio, rep 2 = 1.4; low cell count flag enough cells to score; inactive.
After knock-down of Shc4 the results were nuclear/cytoplasmic p65 ratio, rep 1 = 1.03; nuclear/cytoplasmic p65 ratio, rep 2 = 1.12; low cell count flag fewer than 50 cells per well; well left out of scoring; inactive.
For Btbd16, the entry reads p65 translocation robust z-score -1.38; nuclear/cytoplasmic p65 ratio, rep 1 = 1.27; nuclear/cytoplasmic p65 ratio, rep 2 = 1.19; low cell count flag enough cells to score; inactive.
Knock-down of Or6c210 resulted in: nuclear/cytoplasmic p65 ratio, rep 1 = 1.34; nuclear/cytoplasmic p65 ratio, rep 2 = 1.11; low cell count flag fewer than 50 cells per well; well left out of scoring; inactive.
Morc4 showed p65 translocation robust z-score -0.8; nuclear/cytoplasmic p65 ratio, rep 1 = 1.36; nuclear/cytoplasmic p65 ratio, rep 2 = 1.26; low cell count flag enough cells to score; inactive.
H1f9 gave p65 translocation robust z-score 0.59; nuclear/cytoplasmic p65 ratio, rep 1 = 1.82; nuclear/cytoplasmic p65 ratio, rep 2 = 1.55; low cell count flag enough cells to score; inactive.
With knock-down of Eif5a, the record shows p65 translocation robust z-score -0.94; nuclear/cytoplasmic p65 ratio, rep 1 = 1.33; nuclear/cytoplasmic p65 ratio, rep 2 = 1.13; low cell count flag enough cells to score; inactive.
With knock-down of Man2b2, the screen gave p65 translocation robust z-score -0.83; nuclear/cytoplasmic p65 ratio, rep 1 = 1.28; nuclear/cytoplasmic p65 ratio, rep 2 = 1.29; low cell count flag enough cells to score; inactive.
With knock-down of Sqor the results were p65 translocation robust z-score 1.22; nuclear/cytoplasmic p65 ratio, rep 1 = 1.54; nuclear/cytoplasmic p65 ratio, rep 2 = 1.4; low cell count flag enough cells to score; inactive.
After knock-down of Mageb3 the results were p65 translocation robust z-score 2.67; nuclear/cytoplasmic p65 ratio, rep 1 = 2.09; nuclear/cytoplasmic p65 ratio, rep 2 = 1.98; low cell count flag enough cells to score; inactive.
With knock-down of Cript, the screen gave nuclear/cytoplasmic p65 ratio, rep 1 = 1.11; nuclear/cytoplasmic p65 ratio, rep 2 = 1.44; low cell count flag fewer than 50 cells per well; well left out of scoring; inactive.
With knock-down of A730020M07Rik, the record shows nuclear/cytoplasmic p65 ratio, rep 1 = 1.29; nuclear/cytoplasmic p65 ratio, rep 2 = 1.48; low cell count flag fewer than 50 cells per well; well left out of scoring; inactive.
Knock-down of Gpbp1l1 came out at: nuclear/cytoplasmic p65 ratio, rep 1 = 1.33; nuclear/cytoplasmic p65 ratio, rep 2 = 1.4; low cell count flag fewer than 50 cells per well; well left out of scoring; inactive.
Bmp10 showed p65 translocation robust z-score -1.24; nuclear/cytoplasmic p65 ratio, rep 1 = 1.25; nuclear/cytoplasmic p65 ratio, rep 2 = 1.37; low cell count flag enough cells to score; inactive.
For Vmn1r234 the deposit lists nuclear/cytoplasmic p65 ratio, rep 1 = 1.66; nuclear/cytoplasmic p65 ratio, rep 2 = 1.41; low cell count flag fewer than 50 cells per well; well left out of scoring; inactive.
With knock-down of Aldh1l1 the results were p65 translocation robust z-score 1.82; nuclear/cytoplasmic p65 ratio, rep 1 = 1.88; nuclear/cytoplasmic p65 ratio, rep 2 = 1.7; low cell count flag enough cells to score; inactive.

Looked up above.
Under “nuclear/cytoplasmic p65 ratio, rep 1”, Gpbp1l1 shows 1.33
For “p65 translocation robust z-score”, Aldh1l1 is entered as 1.82
H1f9, nuclear/cytoplasmic p65 ratio, rep 2 → 1.55
